Reference: patent publication US11065286B2 (priority 2016, dated 2021)
At least one compound was matched to its structure with a doubt left.

Tested on: Renca, MC38, and 4T1 cell lines
Format: cell-based, mouse

With `O=c1cc(N2CCOCC2)oc2c(-c3ccccc3)cccc12` [LY294002] the “viral gene expression with HMGB1mut expression in presence of inhibitor” value was “loss of the increased viral gene expression”.
